The values below come from paper PMC6461802, “Coupling of ssRNA cleavage with DNase activity in type III-A CRISPR-Csm revealed by cryo-EM and biochemistry” (Cell Research, 2019).

Residue numbers refer to the chain shown, from its start. No constants are given. Whether binding was seen depends on the method and setting. Binding calls can cover weak binding; strength is not graded here.

Experiment [1] concerns the target T1, Csm3 D33A of the Streptococcus thermophilus type III-A Csm complex (target ssRNA-bound state) (Streptococcus thermophilus DGCC8004).
T1 sequence: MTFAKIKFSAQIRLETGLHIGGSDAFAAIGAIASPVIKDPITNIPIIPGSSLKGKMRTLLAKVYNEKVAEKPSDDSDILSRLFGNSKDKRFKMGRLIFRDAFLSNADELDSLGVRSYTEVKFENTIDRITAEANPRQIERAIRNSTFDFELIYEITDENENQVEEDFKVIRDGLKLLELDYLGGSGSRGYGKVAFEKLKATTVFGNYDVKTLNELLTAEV
Nature of the experiment: cryo-EM structure; target ssRNA-bound state: StCsm complex with 40 nt crRNA and 49 nt target ssRNA, Csm3 D33A; big (3.4 Å) and small (3.5 Å) particle populations; ~0.4 mg/mL, buffer 10 mM Tris-HCl pH 8.0, 150 mM NaCl, 3 mM DTT; both purified.

Experiment [2] has as its target T2, Csm3 of the Streptococcus thermophilus type III-A Csm complex (wild type, apo state) (Streptococcus thermophilus DGCC8004).
T2 sequence: T1 sequence with A33D
Nature of the experiment: cryo-EM structure; apo state: StCsm complex with 40 nt crRNA, wild-type Csm3; big (3.4 Å) and small (3.3 Å) particle populations; ~0.4 mg/mL, buffer 10 mM Tris-HCl pH 8.0, 150 mM NaCl, 3 mM DTT; both purified.

On to “Csm4 of the Streptococcus thermophilus type III-A Csm complex”, for which the binding entry in experiment [1] and in experiment [2] was “binds” each time.
